{"source": "PubChem BioAssay AID590", "about": "(National Center for Advancing Translational Sciences (NCATS), 2007)", "note": "About 6,500 (11%) of roughly 59,000 compounds were called active. The inconclusive results got no clear call from the source; some entries with a clear call stand among them for comparison. No stated cut-off is given here; in the data, active means max dye-equivalent concentration above about 10 nM; inconclusive means mostly about 1.1 nM to 9.6 nM; inactive means weaker than that.", "data": [{"assay": "qHTS Assay for Spectroscopic Profiling in A350 Spectral Region", "settings": "Compound autofluorescence, 340/450 nm, Alexa 350 dye-equivalents; active compounds read high", "values": [{"molecule": "CC(C)OC(=O)CSc1nnc(-c2cnccn2)n1-c1ccccc1", "max dye-equivalent concentration": "inconclusive: 1.2 nM"}, {"molecule": "CC(C)n1c(N2CCN(C(=O)c3cccs3)CC2)nc2ccccc21", "max dye-equivalent concentration": "inactive"}, {"molecule": "CC(C)COC(=O)C(C#N)c1nc2ccccc2nc1N1CCN(Cc2ccccc2)CC1", "note": "(configuration not stated)", "max dye-equivalent concentration": "inconclusive: 5.2 nM"}, {"molecule": "O=S(=O)(c1ccc(Oc2ccccc2)cc1)N1CCOCC1", "max dye-equivalent concentration": "inactive"}, {"molecule": "c1coc(CSCc2cn3cccnc3n2)c1", "max dye-equivalent concentration": "inconclusive: 6.6 nM"}, {"molecule": "CCC(=O)N1CCc2cc(Br)cc(S(=O)(=O)CCC(=O)NCc3ccco3)c21", "max dye-equivalent concentration": "inactive"}, {"molecule": "COc1ccccc1CNc1n[nH]c(NCc2ccccc2OC)n1", "max dye-equivalent concentration": "inconclusive: 1.1 nM"}, {"molecule": "COc1ccc2c(c1)cc1n2CCN=C1N", "max dye-equivalent concentration": "active: 70 nM"}, {"molecule": "CC(=O)c1ccc(OCC(C)C)c(CN2CCCCC2)c1", "max dye-equivalent concentration": "inactive"}, {"molecule": "CCCCNC(=O)c1cn(C)c2ccc(S(=O)(=O)N3CCOCC3)cc2c1=O", "max dye-equivalent concentration": "inactive"}, {"molecule": "O=C(CC1SC2=NCCN2C1=O)Nc1ccc(Br)cc1", "note": "(configuration not stated)", "max dye-equivalent concentration": "inactive"}, {"molecule": "N=c1c2c(-c3ccccc3)c(-c3ccccc3)oc2ncn1CCCN1CCOCC1", "max dye-equivalent concentration": "active: 17 nM"}, {"molecule": "COc1ccc(S(=O)(=O)N2CCCCCC2)cc1C(=O)OCc1c(C)noc1C", "max dye-equivalent concentration": "inconclusive: 3.7 nM"}, {"molecule": "COc1ccc2nc3oc(C(=O)N4CCN(c5cccc(C(F)(F)F)c5)CC4)cc3cc2c1", "max dye-equivalent concentration": "inconclusive: 5.9 nM"}, {"molecule": "CCOC(=O)CCSc1nc2c(c(C(F)(F)F)c1C#N)CCC2", "max dye-equivalent concentration": "active: 37 nM"}, {"molecule": "Cc1noc(C)c1C(=O)N1CCC[C@@]2(CCN(Cc3ccc(C#N)cc3)C2)C1", "max dye-equivalent concentration": "inactive"}, {"molecule": "Cc1cc(NC(=O)CSc2nc3c([nH]c4ccccc43)c(=O)n2-c2cccc(C(F)(F)F)c2)no1", "max dye-equivalent concentration": "active: 12 nM"}, {"molecule": "CCN1CCN(C(c2ccc(OC)c(OC)c2)c2nnnn2C(C)(C)C)CC1", "note": "(configuration not stated)", "max dye-equivalent concentration": "inactive"}, {"molecule": "CC(C)COC(=O)c1nnsc1NC(=O)Nc1ccccc1", "max dye-equivalent concentration": "inactive"}, {"molecule": "Cc1cc(C)c2c(c1)cc(C)c1nnc(SCC(=O)Nc3cc(C)on3)n12", "max dye-equivalent concentration": "inactive"}, {"molecule": "O=c1c2cc(Cl)ccc2[nH]c(=S)n1Cc1ccco1", "max dye-equivalent concentration": "inconclusive: 2 nM"}, {"molecule": "COc1cc(C)c(C(C)C)cc1S(=O)(=O)N1CCOCC1", "max dye-equivalent concentration": "inconclusive: 1.3 nM"}, {"molecule": "COc1ccc(S(=O)(=O)Nc2ccc(O)c3ccccc23)cc1", "max dye-equivalent concentration": "inconclusive: 4.8 nM"}, {"molecule": "Cc1ccc(CNC(=O)CN2CCN(Cc3ccc(C)cc3)C2=O)cc1", "max dye-equivalent concentration": "inactive"}, {"molecule": "CCCS(=O)(=O)c1nnnn1-c1cccc(OC)c1", "max dye-equivalent concentration": "inactive"}, {"molecule": "Oc1ccc(Br)cc1-c1nc2cnccn2c1NC1CCCC1", "max dye-equivalent concentration": "inconclusive: 4.4 nM"}, {"molecule": "O=C(Nc1nccs1)C1CCCN1S(=O)(=O)c1ccc(F)cc1", "note": "(configuration not stated)", "max dye-equivalent concentration": "inactive"}]}]}
